This note sets out measurements from PubChem BioAssay AID2685 (National Center for Advancing Translational Sciences (NCATS), 2010).

The nature of this assay: qHTS Assay for Lipid Storage Modulators in Drosophila S3 Cells.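 As to cell number change: cells counted by Cell Tracker Red CMTPX staining in the red channel.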 To be noted: BODIPY lipid droplet fluorescence, 18-24 h; for cell number change: measured here: cell count max response, cells fed with added oleic acid. An outline of the steps: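 Drosophila S3 cells loaded with oleic acid (400 uM, as added) and compounds at several concentrations; lipid droplets imaged by 488-nm laser-scanning cytometry, 500–530 nm intensity and object ratio to cell channel. Percent activity normalized to 20 uM Triacsin C.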
Background: In qHTS, concentration-response curves come from the screen itself.

Setting [1] is: measured here: cell number channel AC50, cells fed with added oleic acid.
[2] abbreviates: measured here: lipid fluorescence (Fed channel) AC50, cells fed with added oleic acid.

This is one part of the list. Further columns of the screen follow, without active or inactive calls. Most of these compounds were active or inconclusive in the main read-out, so they are no random draw. Potencies come from curve fits of mixed quality, noted in brackets.

As to `O=C(On1c(-c2ccccc2)nc2ccccc2c1=O)c1ccco1`, the cell number change is -39.2%. The AC50 (commonly the concentration at which the activity in the assay is half-maximal) under setting [1] is 0.82 µM [falling, full curve].

In the case of `CC1CCN(Cc2nnnn2-c2ccc(Cl)cc2)CC1`, the AC50 under setting [2] was 29.1 µM [falling, single point].

For `O=C1CN(O)C=C2N=c3ccccc3=C2N1c1ccc([N+](=O)[O-])cc1`, the AC50 under setting [1] is 0.731 µM [rising, single point].

Regarding `Cc1ccc(Cl)cc1NC1=C/C(=N\S(=O)(=O)c2cccs2)c2ccccc2C1=O`, the cell number change is -67.4%. The AC50 under setting [1] was 32.6 µM [falling, partial curve, poor fit]. Further, under setting [2], the AC50 was 0.0184 µM [falling, full curve, poor fit].

For `O=C(c1ccc(NS(=O)(=O)c2ccccc2)cc1)N1CCOCC1`, the cell number change is -6.58%.

On to `COc1cc(OC)cc(N(C(=O)CNC(=O)c2ccco2)C(C(=O)NCC2CCCO2)c2ccccc2)c1` (stereo unspecified), for which the cell number change is -1.32%. Under setting [2], the AC50 was 4.47 µM [falling, full curve, poor fit].

Regarding `O=S(=O)(c1ccc(SCCOc2ccc(F)cc2)nc1)N1CCCC1`, the cell number change worked out at 2.89%. The AC50 under setting [2] is 2.06 µM [rising, single point].

Turning to `Clc1ccc(-c2nnc(COc3ncnc4sccc34)o2)cc1`, the cell number change was determined as 31.5%. In addition, the AC50 under setting [1] was 7.31 µM [rising, partial curve, poor fit]. Further, the AC50 under setting [2] was 29.1 µM [rising, single point].

On to `Clc1ccc(C2=CSC3=Nc4cccc5cccc(c45)N23)cc1`, for which the AC50 under setting [2] is 0.461 µM [falling, full curve].

Take `Cc1cccc(C(=O)OCc2cnc(Cl)s2)c1`: the cell number change is -35.7%. In addition, the AC50 under setting [1] is 32.6 µM [falling, single point].

In the case of `O=C(C1CCCN(Cc2ccccc2Br)C1)N1CCCCC1` (stereo unspecified), the cell number change was found to be 1.96%. The half-maximal activity concentration (AC50) under setting [2] was 20.6 µM [falling, single point].

Regarding `COc1ccc(OC)c(NC(=O)N2CCCC(C)C2)c1` (stereo unspecified), the cell number change was found to be 5.16%.

As for `O=C(Nc1nc(-c2ccccn2)cs1)C1CC1`, the cell number change is -15.4%. Also, the AC50 under setting [2] is 7.31 µM [falling, partial curve].

As to `CCCSCCCNC(=O)Cn1cc2c(n1)CCC(C)C2` (stereo unspecified), the cell number change is -18.8%. The AC50 under setting [2] was 29.1 µM [falling, single point].

`COCc1cc(C)nc(NCCO)c1C#N`: the cell number change came out at 0.893%. The AC50 under setting [2] was 29.1 µM [rising, single point].

Consider `O=C(CN(C1CCCCC1)S(=O)(=O)c1ccc(Cl)cc1)NCc1cccnc1`, for which the cell number change is -23.4%.

As for `O=C(CCn1c(=O)c2sccc2n(CC(=O)OCc2ccccc2)c1=O)NCc1ccco1`, the cell number change was -33.1%. The AC50 under setting [1] was 18.4 µM [falling, single point]. Further, the AC50 under setting [2] is 29.1 µM [falling, single point].

Turning to `Cc1cc(N(CCO)CCO)ccc1N=Nc1cc(F)ccc1F`, the cell number change is -65.4%. Besides, the AC50 under setting [1] is 23.1 µM [falling, single point]. Under setting [2], the AC50 was 5.17 µM [falling, full curve].

As to `CC(=O)OC1C(N2CCCCC2)c2c(ccc(/C=C/C(=O)N3CCCCC3)c2O)OC1(C)C` (stereo unspecified), the cell number change was -67.3%. Under setting [1], the AC50 was 2.91 µM [falling, full curve]. For the same molecule, under setting [2], the concentration at half-maximal activity (AC50) was 7.31 µM [falling, partial curve].

`COc1cc2c(cc1OC)-c1cc(NC3CCCCCCC3)nc(=O)n1CC2`: the cell number change was -12.7%. In addition, the AC50 under setting [2] is 0.146 µM [falling, full curve, poor fit].

As for `O=C(CSc1nc(O)c(-c2ccccc2)c(=O)[nH]1)N1CCOCC1`, under setting [1], the AC50 is 0.13 µM [rising, full curve, poor fit].

On to `Cn1c(SCc2nc3ccccc3[nH]2)nnc1-c1cccs1`, for which the cell number change was -29.8%. The AC50 under setting [2] is 10.3 µM [falling, partial curve].

Regarding `COc1ccccc1NC(=O)N1CCN(c2ccc3nnc(-c4ccc(F)cc4)n3n2)CC1`, the cell number change was -4.08%. Moreover, under setting [1], the AC50 is 0.092 µM [rising, full curve, poor fit].

For the molecule `COc1ccc(/C=N/OCC(=O)N(Cc2ccccc2)c2ccccc2C(=O)O)cc1`, the cell number change was -2.02%. The AC50 under setting [2] is 0.058 µM [falling, full curve].

On to `COc1ccc(Cl)cc1S(=O)(=O)N1CCN(C(=O)COc2ccccc2)CC1`, for which the AC50 runs as follows: under setting [1], 2.06 µM [rising, partial curve]; under setting [2], 0.58 µM [rising, single point].

Take `O=[N+]([O-])c1ccc(/C=C/c2ccncc2)cc1`: the cell number change is 26.4%. The AC50 under setting [1] was 0.291 µM [rising, full curve, poor fit]. In addition, the AC50 under setting [2] was 0.58 µM [falling, single point].

Regarding `Cc1ccc(C(=O)Nc2ccccc2N2CCCC2)cc1`, the cell number change worked out at 14.4%. Also, the AC50 under setting [2] is 29.1 µM [rising, single point].

Regarding `COc1cc(SC)ccc1C(=O)Nc1nc(C)cc(C)n1`, the cell number change was found to be 13.6%.

With `c1ccc(-c2cn3nc(-c4ccccc4)cnc3n2)cc1`, the cell number change is -13.6%.

With `c1ccc(CCn2nnnc2C(c2cccnc2)N2CCN(c3nc4ccccc4s3)CC2)cc1` (stereo unspecified), the cell number change is -28.6%. In addition, the concentration at half-maximal activity (AC50) under setting [2] was 0.103 µM [rising, full curve].

As for `COc1ccc(NC(=S)Nc2ccccc2SC)c(OC)c1`, the cell number change was -16.4%.

In the case of `Cc1cccc(NC(=O)CSc2nc(C3CC3)nc3ccccc23)c1`, the cell number change was -13.9%. In addition, the AC50 under setting [2] is 0.58 µM [rising, single point].

Consider `CC(=O)c1sc2nc(=O)c(C)nn2c1C`, for which the cell number change was 11.7%. For the same molecule, the AC50 under setting [2] is 23.1 µM [falling, partial curve, poor fit].

As to `CCc1cccc(CC)c1N(COC)C(=O)Cn1c(CO)nc2ccccc21`, the cell number change is -2.83%. For the same molecule, under setting [2], the half-maximal activity concentration (AC50) was 1.46 µM [falling, partial curve].

For the molecule `O=C(NCCCn1ccnc1)C(=O)NCC(c1ccco1)N1CCN(c2ccccc2)CC1` (stereo unspecified), the cell number change is -4.1%. Also, under setting [1], the AC50 is 0.461 µM [rising, full curve]. Also, the AC50 under setting [2] was 0.461 µM [rising, partial curve, poor fit].

As to `COc1ccc(NC(=O)C2CCN(C(=O)Nc3ccccc3)CC2)cc1S(=O)(=O)N(C)C`, the cell number change was -11.8%. In addition, the AC50 under setting [1] was 4.61 µM [falling, partial curve, poor fit].

As to `COc1ccc(-c2cc(C(F)F)n3ncc(C(=O)NCC4CCCO4)c3n2)cc1` (stereo unspecified), the AC50 was 6.51 µM [rising, single point] under setting [1] and 6.51 µM [rising, single point] under setting [2].

Consider `COc1ccc(Oc2nc3c(c(=O)n(C)c(=O)n3C)n2Cc2ccccc2)cc1`, for which the cell number change came to 10.4%. The AC50 under setting [2] is 0.82 µM [rising, full curve, poor fit].

In the case of `COc1cccc(C(C)NC(=O)c2ccncc2)c1` (stereo unspecified), the cell number change was -22.5%.

For `CC(C)COc1ccc(C(=O)Nc2ncn[nH]2)cc1`, the cell number change is -11.2%.

For `COc1ccccc1NS(=O)(=O)c1cc(C(=O)N2CCCCCCC2)ccc1C`, the AC50 under setting [1] was 2.06 µM [rising, partial curve, poor fit].

`Cc1ccc(C(=O)NCCCN2CCOCC2)cc1S(=O)(=O)N1CCOCC1`: the cell number change was found to be 13.8%. Also, the AC50 under setting [2] is 1.84 µM [falling, partial curve, poor fit].

For `CCc1c(C)nc2c(Br)cccc2c1SCCC#N`, the cell number change was -3.3%. Moreover, the AC50 under setting [2] was 29.1 µM [rising, single point].

As for `COc1cccc(CNC(=O)CCC(=O)n2ncc3cc(C)ccc32)c1OC`, the cell number change was 8.36%. Further, the AC50 under setting [1] is 0.731 µM [rising, single point]. Besides, the AC50 under setting [2] is 1.84 µM [rising, partial curve, poor fit].

Take `O=C(CN1C(=O)C2CCCCC2C1=O)Nc1ccc(S(=O)(=O)Nc2ncccn2)cc1` (stereo unspecified): the cell number change was -20.3%.

For the molecule `CN(C)CCCNC(=O)CC(c1ccccc1)c1ccccc1O` (stereo unspecified), the cell number change was -14.5%. Moreover, the AC50 under setting [1] was 6.51 µM [falling, single point]. Further, the AC50 under setting [2] was 14.6 µM [falling, partial curve].

For the molecule `Cc1ccccc1S(=O)(=O)Cc1ccc(C(=O)N2CCN(c3cccc(C)c3C)CC2)o1`, the AC50 under setting [1] is 6.51 µM [rising, single point] and the AC50 under setting [2] was 6.51 µM [rising, single point].

Consider `CC(=O)Nc1ccc(NC(=O)CC2Nc3cccc4cccc(c34)NC2=O)cc1` (stereo unspecified), for which the cell number change was -11.7%.

Consider `CCc1ccc(NC(=O)Cn2ncn3c(cc4ccccc43)c2=O)cc1`, for which the cell number change was 11.2%. Further, under setting [2], the AC50 was 6.51 µM [falling, single point].

With `CCOc1ccc(N(Cc2cc3cc(C)ccc3[nH]c2=O)C(=O)COC)cc1`, the cell number change is -12%.

In the case of `CCOC(=O)CNNC(=O)Nc1ccc(Cl)c(Cl)c1`, under setting [2], the AC50 was 29.1 µM [rising, single point].

`O=C(CCCCCn1c(=O)[nH]c2ccccc2c1=O)NCCc1c[nH]c2ccccc12`: the cell number change is -23.7%. In addition, the AC50 under setting [2] was 29.1 µM [falling, single point].

As for `Cc1cc(O)cc(=O)n1Cc1ccco1`, the cell number change worked out at 28.3%. Further, under setting [2], the AC50 is 5.17 µM [rising, partial curve].

In the case of `C/C=C/C1=CC(=O)C[C@H](c2ccc(OC)c(OC)c2)C1`, the cell number change was -3.5%. Besides, the AC50 under setting [1] was 0.00517 µM [falling, full curve, poor fit]. Also, under setting [2], the AC50 was 0.00517 µM [falling, full curve, poor fit].

On to `CCN(CC(=O)N1CCOCC1)S(=O)(=O)c1ccc2ccccc2c1`, for which the cell number change turned out to be 6.5%. The AC50 under setting [2] was 0.146 µM [rising, full curve, poor fit].

With `CCOC(=O)Cn1nc(C)c(NC(=O)c2ccc(Br)o2)c1C`, the cell number change turned out to be 34.3%. In addition, the AC50 under setting [2] is 29.1 µM [rising, single point].

On to `O=C(CCC(=O)c1ccc(Br)cc1)Nc1cccc(C(F)(F)F)c1`, for which the cell number change is -49%. Besides, the AC50 under setting [1] was 23.1 µM [falling, single point]. Besides, the AC50 under setting [2] was 23.1 µM [falling, single point].

Turning to `CC(C)Cn1nc(C(=O)Nc2cccc(S(=O)(=O)N3CCCC3)c2)c2ccccc2c1=O`, the cell number change was 0.63%. In addition, under setting [2], the AC50 was 3.66 µM [rising, single point].

In the case of `CCCCn1c(SCC(=O)NC2CCS(=O)(=O)C2)nc2cc(S(N)(=O)=O)ccc21` (stereo unspecified), the cell number change amounted to 9.09%.

As for `CCOC(=O)CC(NC(=O)c1ccco1)c1ccccc1Cl` (stereo unspecified), the cell number change was -20.3%. Also, the AC50 under setting [2] is 32.6 µM [falling, single point].

As for `Cc1ccc(-n2nnc3c(SCC(=O)NCC4CCCO4)ncnc32)cc1` (stereo unspecified), the cell number change is 32.8%. Also, under setting [1], the AC50 was 29.1 µM [rising, single point]. Under setting [2], the AC50 was 0.58 µM [falling, single point].
